# In PubChem BioAssay AID540276 (National Center for Advancing Translational Sciences (NCATS), 2011):
# Hit rate of the full screen: of about 300,000 compounds, about 5,400 (1.8%) were called active. The inconclusive results got no clear call from the source; some entries with a clear call stand among them for comparison. Calls follow the shape of the full dose curve; tested in HEK293 cells. Potencies of inconclusive entries are doubtful fits and often do not repeat.
# Experiment: qHTS for inhibitors of binding or entry into cells for Marburg Virus
# Conditions: Marburg virus pseudotyped entry inhibition, cell reporter; series mostly up to 37.8 µM
# Potency is read from the fitted curve at half-maximal effect.
row,Compound,Potency
1,Cc1ccc(C(=O)Nc2nnc(-c3ccco3)o2)cc1,"inconclusive: 35.5 µM [inhibitor, single point]"
2,COc1ccccc1Nc1nnc(SCC(=O)c2c(N)n(C3CC3)c(=O)[nH]c2=O)s1,inactive
3,Cc1nc(SCCOc2ccccc2)[nH]c(=O)c1Cc1ccccc1,inactive
4,CCCCC(=O)N/N=C/c1ccc(Sc2cccc3cccnc23)o1,inactive
5,CCC1CCCCN1S(=O)(=O)c1ccc2c(c1)CCN2C(=O)C1CCC1 (stereo not given),"inconclusive: 28.2 µM [inhibitor, single point]"
6,N=c1c2c(n(Cc3ccc(Br)cc3)c3c1CCC3)CCCC2,"inconclusive: 2.91 µM [inhibitor, partial curve, poor fit]"
7,Cc1ccc(/C=C2\SC(=S)N(CCCC(=O)Nc3nccs3)C2=O)cc1,"inconclusive: 0.282 µM [inhibitor, partial curve, poor fit]"
8,N#Cc1ccc(CN2CCN(C(=O)CC(NC(=O)c3ccccc3)c3ccccc3)CC2)cc1 (stereo not given),inactive
9,COc1cccc(CNC(=S)NC2CC2)c1,inactive
10,CCOC(=O)N1CCN(S(=O)(=O)c2ccc(C(=O)N(CCCN(C)C)c3nc4c(F)cc(F)cc4s3)cc2)CC1,inactive
11,CC[N+](CC)(CC)CCOc1cccc(OCC[N+](CC)(CC)CC)c1OCC[N+](CC)(CC)CC,"inconclusive: 0.501 µM [inhibitor, full curve, poor fit]"
12,O=C(NCc1cccnc1)Nc1ccccc1F,"inconclusive: 0.0517 µM [activator, full curve, poor fit]"
13,COc1cc(CCN2C(=O)c3cccc4cccc(c34)C2=O)c(S(=O)(=O)NCCO)cc1OC,inactive
14,CC(C)CNC(=O)C(=O)NCC1CCCN1S(=O)(=O)c1cccs1 (stereo not given),inactive
15,CCN1CCN(c2ccc(S(=O)(=O)N3CCCCC3)cc2NC(=O)/C=C/c2cc(OC)ccc2OC)CC1,"inconclusive: 35.5 µM [inhibitor, single point]"
16,CCOC(=O)N1CCN(C(=O)CSc2ccc(-c3ccccc3OC)nn2)CC1,inactive
17,Clc1ccc(C2Nc3cccc4cccc(c34)N2)c(Cl)c1,"inconclusive: 7.08 µM [inhibitor, partial curve, poor fit]"
18,O=C(CCC1CCCN(C(=O)c2ccc3cc[nH]c3c2)C1)NCc1ccc(F)c(F)c1 (stereo not given),"inconclusive: 35.5 µM [inhibitor, single point]"
19,O=[N+]([O-])c1cccc(N=Cc2ccccc2)c1,inactive
20,COc1cccc(NC(=O)N(Cc2cn(C)c3ccccc23)C2CCCCC2)c1,inactive
21,Cc1cc(C)cc(C(=O)Oc2coc(CSc3nnc(NC(=O)C4CC4)s3)cc2=O)c1,"inconclusive: 35.5 µM [inhibitor, single point]"
22,Cc1nn(CCCC(=O)Nc2sc3c(c2C#N)CCC3)c(C)c1[N+](=O)[O-],inactive
23,COc1cc(C2C(C(=O)OC(C)C)=C(C)N=C3SCCC(=O)N32)ccc1OCc1ccccc1 (stereo not given),"inconclusive: 35.5 µM [inhibitor, single point]"

# Compounds shown so far that have a thiophene ring, fused or not:
row,Compound,Potency
14,CC(C)CNC(=O)C(=O)NCC1CCCN1S(=O)(=O)c1cccs1 (stereo not given),inactive
22,Cc1nn(CCCC(=O)Nc2sc3c(c2C#N)CCC3)c(C)c1[N+](=O)[O-],inactive

# Individual results from the entries so far.
# For Potency, CC(C)CNC(=O)C(=O)NCC1CCCN1S(=O)(=O)c1cccs1 (stereo not given) is entered as inactive
# For Potency, CCC1CCCCN1S(=O)(=O)c1ccc2c(c1)CCN2C(=O)C1CCC1 (stereo not given) is entered as inconclusive: 28.2 µM [inhibitor, single point]

# The listing continues:

row,Compound,Potency
1,CC(=O)NCCC(=O)Nc1nc2ccc(Oc3ccccc3)cc2s1,"inconclusive: 22.4 µM [inhibitor, single point]"
2,c1ccc(CN(CCN2CCOCC2)Cc2ccccc2)cc1,"inconclusive: 11.2 µM [inhibitor, partial curve, poor fit]"
3,COC(=O)[C@H]1C2CCC(C(=O)OC)(CC2)[C@H]1C(=O)OC,"inconclusive: 3.26 µM [inhibitor, partial curve, poor fit]"
4,Cc1ccc(OCC(=O)N/N=C2/SCC(=O)N2Cc2ccco2)cc1,"inconclusive: 3.16 µM [inhibitor, partial curve, poor fit]"
5,NCCOc1ccc(C2CCCCC2)cc1,"inconclusive: 10 µM [inhibitor, single point]"
6,O=C(NNC(=S)Nc1ccc(Cl)cc1Cl)C1CC1,"inconclusive: 1.26 µM [activator, full curve, poor fit]"
7,CC(C)COc1ccc(C(=O)OCCN2CCOCC2)cc1,"inconclusive: 0.355 µM [activator, full curve, poor fit]"
8,Cc1[nH]c2ccc(C(=O)OCCN(C)C)cc2c1C,"inconclusive: 6.31 µM [activator, single point]"
9,CSc1ccc(/C=C/c2ccc3cccc(O)c3n2)cc1,active: 2.51 µM
10,Cc1ccc(-n2nc3ccc(NC(=O)C(C)C)cc3n2)cc1,inactive
11,Cc1ccn2c(=O)c(C(=O)NCCc3ccc(S(N)(=O)=O)cc3)c(O)nc2c1,"inconclusive: 8.91 µM [activator, partial curve, poor fit]"
12,COc1ccc(-n2c(O)c(C(C)=NCC3CCCO3)c(=O)[nH]c2=O)cc1 (stereo not given),"inconclusive: 3.98 µM [inhibitor, full curve, poor fit]"
13,COc1ccc2nc(C)cc(N/N=C/c3ccccc3)c2c1,"inconclusive: 35.5 µM [inhibitor, partial curve, poor fit]"
14,O=C(N/N=C1\CCCc2c1[nH]c1ccc(Cl)cc21)c1ccncc1,inactive
15,C/C(=N\Nc1nc(N)cc(Cl)n1)c1cccc(N)c1,"inconclusive: 35.5 µM [activator, single point]"
16,COc1ccccc1CNC(=O)C1CCN(S(=O)(=O)c2c(C)noc2/C=C/c2cccs2)CC1,inactive
17,COC(=O)c1cnc(NNC(=O)c2ccc([N+](=O)[O-])cc2)nc1C(F)(F)F,"inconclusive: 35.5 µM [activator, single point]"
18,CCCCCCCc1cc2ccccc2c(=O)o1,inactive
19,O=[N+]([O-])c1ccc(CN2CCOCCOCCN(Cc3ccc([N+](=O)[O-])cc3)CCOCC2)cc1,"inconclusive: 35.5 µM [inhibitor, single point]"
20,O=C(COc1ccc2ccccc2c1)N1CCNCC1,inactive
21,COc1ccc(CN2CCNC(=O)C2CC(=O)NCc2cn3ccc(C)cc3n2)c(OC)c1 (stereo not given),"inconclusive: 5.62 µM [activator, single point]"
22,Cc1cc(Nc2ccccc2)n(-c2nc3ccccc3[nH]2)n1,"inconclusive: 20 µM [inhibitor, single point]"
